In paper PMC4125095, “Arabidopsis miR171-Targeted Scarecrow-Like Proteins Bind to GT cis-Elements and Mediate Gibberellin-Regulated Chlorophyll Biosynthesis under Light Conditions”:
Results are given in words; binding and its absence hold for the method and conditions named. Some entries that bind do so weakly or less than the wild type.

Target: T1, SCL22 in pGBKT7 (Arabidopsis thaliana) (UniProt Q9M000)
T1 sequence: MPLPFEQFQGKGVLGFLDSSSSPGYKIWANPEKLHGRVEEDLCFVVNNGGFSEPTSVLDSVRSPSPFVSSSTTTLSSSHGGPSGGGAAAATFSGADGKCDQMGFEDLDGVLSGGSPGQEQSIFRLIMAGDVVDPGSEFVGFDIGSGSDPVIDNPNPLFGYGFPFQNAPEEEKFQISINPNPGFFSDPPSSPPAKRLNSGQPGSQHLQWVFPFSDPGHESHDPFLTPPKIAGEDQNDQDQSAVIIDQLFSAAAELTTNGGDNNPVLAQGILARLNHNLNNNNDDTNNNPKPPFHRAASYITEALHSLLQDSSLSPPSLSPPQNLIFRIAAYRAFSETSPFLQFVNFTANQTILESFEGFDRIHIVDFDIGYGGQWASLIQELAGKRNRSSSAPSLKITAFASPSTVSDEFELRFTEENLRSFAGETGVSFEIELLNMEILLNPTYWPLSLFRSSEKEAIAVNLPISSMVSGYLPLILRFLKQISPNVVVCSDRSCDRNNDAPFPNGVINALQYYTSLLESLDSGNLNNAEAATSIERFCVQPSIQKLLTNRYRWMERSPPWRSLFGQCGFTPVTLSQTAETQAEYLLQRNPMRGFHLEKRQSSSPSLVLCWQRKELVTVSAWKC
Test: two-hybrid; yeast strain AH109; transformants selected on SD-Leu-Trp; interactions tested on SD-Trp-Leu-His-Ade plates with or without 3-amino-1,2,4-triazole; pDEST32/pDEST22 (SCL27 and RGA) or pGBKT7/pGADT7 (SCL22 and DELLAs)

B1: RGL1 in pGADT7 (protein, UniProt Q9C8Y3 1-511)
chain: MKREHNHRESSAGEGGSSSMTTVIKEEAAGVDELLVVLGYKVRSSDMADVAHKLEQLEMVLGDGISNLSDETVHYNPSDLSGWVESMLSDLDPTRIQEKPDSEYDLRAIPGSAVYPRDEHVTRRSKRTRIESELSSTRSVVVLDSQETGVRLVHALLACAEAVQQNNLKLADALVKHVGLLASSQAGAMRKVATYFAEGLARRIYRIYPRDDVALSSFSDTLQIHFYESCPYLKFAHFTANQAILEVFATAEKVHVIDLGLNHGLQWPALIQALALRPNGPPDFRLTGIGYSLTDIQEVGWKLGQLASTIGVNFEFKSIALNNLSDLKPEMLDIRPGLESVAVNSVFELHRLLAHPGSIDKFLSTIKSIRPDIMTVVEQEANHNGTVFLDRFTESLHYYSSLFDSLEGPPSQDRVMSELFLGRQILNLVACEGEDRVERHETLNQWRNRFGLGGFKPVSIGSNAYKQASMLLALYAGADGYNVEENEGCLLLGWQTRPLIATSAWRINRVE
binding: binds
